{
  "sequences": {"note": "By UniProt entry, the sequences of proteins in these tests, tags left out.", "UniProt Q9Y6Q9": "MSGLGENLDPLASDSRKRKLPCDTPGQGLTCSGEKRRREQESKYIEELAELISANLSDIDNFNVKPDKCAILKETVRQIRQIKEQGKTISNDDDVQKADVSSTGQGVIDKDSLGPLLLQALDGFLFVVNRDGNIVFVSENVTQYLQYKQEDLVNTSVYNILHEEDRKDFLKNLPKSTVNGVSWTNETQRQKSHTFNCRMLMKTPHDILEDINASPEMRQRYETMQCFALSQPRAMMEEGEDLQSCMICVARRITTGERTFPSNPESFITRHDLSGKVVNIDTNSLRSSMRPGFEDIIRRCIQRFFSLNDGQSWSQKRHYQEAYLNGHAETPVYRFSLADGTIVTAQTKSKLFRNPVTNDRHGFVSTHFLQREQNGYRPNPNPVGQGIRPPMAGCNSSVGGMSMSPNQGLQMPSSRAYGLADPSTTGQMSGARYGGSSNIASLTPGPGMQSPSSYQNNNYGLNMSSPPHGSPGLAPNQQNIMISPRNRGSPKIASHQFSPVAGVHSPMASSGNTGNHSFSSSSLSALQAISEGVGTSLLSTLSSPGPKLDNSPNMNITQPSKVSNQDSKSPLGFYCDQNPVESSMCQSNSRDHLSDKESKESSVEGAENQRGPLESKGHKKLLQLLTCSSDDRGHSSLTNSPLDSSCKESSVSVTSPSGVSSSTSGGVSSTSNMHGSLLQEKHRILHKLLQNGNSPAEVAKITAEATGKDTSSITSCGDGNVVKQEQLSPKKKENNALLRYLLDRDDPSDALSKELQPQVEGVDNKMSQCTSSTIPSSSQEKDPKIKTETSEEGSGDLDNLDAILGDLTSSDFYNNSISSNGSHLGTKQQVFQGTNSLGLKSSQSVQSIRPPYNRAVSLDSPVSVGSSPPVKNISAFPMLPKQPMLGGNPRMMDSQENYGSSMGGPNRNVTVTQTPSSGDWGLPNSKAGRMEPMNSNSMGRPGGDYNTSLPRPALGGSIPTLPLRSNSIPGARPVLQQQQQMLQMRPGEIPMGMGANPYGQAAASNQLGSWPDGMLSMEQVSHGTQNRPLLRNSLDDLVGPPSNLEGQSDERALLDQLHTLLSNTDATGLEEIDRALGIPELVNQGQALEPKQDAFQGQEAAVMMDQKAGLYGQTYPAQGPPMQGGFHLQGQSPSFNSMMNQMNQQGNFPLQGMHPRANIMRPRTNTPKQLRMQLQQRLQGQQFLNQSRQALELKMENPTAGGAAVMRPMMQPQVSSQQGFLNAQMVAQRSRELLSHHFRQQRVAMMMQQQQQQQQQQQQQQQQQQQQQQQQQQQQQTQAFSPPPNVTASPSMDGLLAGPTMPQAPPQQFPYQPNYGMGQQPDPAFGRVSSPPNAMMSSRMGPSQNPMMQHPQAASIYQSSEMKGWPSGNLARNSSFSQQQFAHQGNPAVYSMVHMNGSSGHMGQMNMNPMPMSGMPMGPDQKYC"},
  "source": "paper PMC4021842",
  "target": "T1, IKKβ (UniProt O14920)",
  "T1 sequence": "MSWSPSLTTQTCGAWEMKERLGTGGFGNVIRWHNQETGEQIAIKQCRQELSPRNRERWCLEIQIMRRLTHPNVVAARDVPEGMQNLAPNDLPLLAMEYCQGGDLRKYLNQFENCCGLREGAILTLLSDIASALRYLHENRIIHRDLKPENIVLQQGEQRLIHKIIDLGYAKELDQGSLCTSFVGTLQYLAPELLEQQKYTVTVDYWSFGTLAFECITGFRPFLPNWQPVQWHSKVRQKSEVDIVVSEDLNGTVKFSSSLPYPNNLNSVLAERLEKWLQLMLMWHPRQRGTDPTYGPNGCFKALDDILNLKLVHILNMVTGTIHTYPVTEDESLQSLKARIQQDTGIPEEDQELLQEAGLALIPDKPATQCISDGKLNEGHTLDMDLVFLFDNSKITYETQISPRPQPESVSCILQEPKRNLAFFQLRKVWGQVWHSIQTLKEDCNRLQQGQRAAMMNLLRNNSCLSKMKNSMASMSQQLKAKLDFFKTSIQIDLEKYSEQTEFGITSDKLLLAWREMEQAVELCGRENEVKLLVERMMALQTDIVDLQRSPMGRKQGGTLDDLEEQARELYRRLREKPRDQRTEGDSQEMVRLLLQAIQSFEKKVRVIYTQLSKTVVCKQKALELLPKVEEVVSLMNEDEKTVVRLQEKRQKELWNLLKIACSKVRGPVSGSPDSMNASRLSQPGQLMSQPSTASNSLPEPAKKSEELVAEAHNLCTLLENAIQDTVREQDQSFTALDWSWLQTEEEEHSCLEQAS",
  "assay": "co-IP; 293 T cell lysates immunoprecipitated by correspondent antibodies or control IgG, extensive washing, Western blotting; bait not stated",
  "note": "These are yes or no findings as the source states them, for the method shown. Binding seen in cells or lysates may run through a third protein. Some results given as binding are weak or reduced against the parent protein; the word gives no strength.",
  "data": [
    {"substance": "Steroid receptor coactivator 3 (SRC-3) (from UniProt Q9Y6Q9 1-1424)", "values": [
      {"measurement": "binding", "value": "binds"}
    ]}
  ]
}
